PMC1594584
Results are given in words; binding and its absence hold for the method and conditions named. Binding seen in cells or lysates may run through a third protein.

Amino acid sequences for entries named in this document (tags omitted). Residues count along the entry.
UniProt P05453, residues 124-685: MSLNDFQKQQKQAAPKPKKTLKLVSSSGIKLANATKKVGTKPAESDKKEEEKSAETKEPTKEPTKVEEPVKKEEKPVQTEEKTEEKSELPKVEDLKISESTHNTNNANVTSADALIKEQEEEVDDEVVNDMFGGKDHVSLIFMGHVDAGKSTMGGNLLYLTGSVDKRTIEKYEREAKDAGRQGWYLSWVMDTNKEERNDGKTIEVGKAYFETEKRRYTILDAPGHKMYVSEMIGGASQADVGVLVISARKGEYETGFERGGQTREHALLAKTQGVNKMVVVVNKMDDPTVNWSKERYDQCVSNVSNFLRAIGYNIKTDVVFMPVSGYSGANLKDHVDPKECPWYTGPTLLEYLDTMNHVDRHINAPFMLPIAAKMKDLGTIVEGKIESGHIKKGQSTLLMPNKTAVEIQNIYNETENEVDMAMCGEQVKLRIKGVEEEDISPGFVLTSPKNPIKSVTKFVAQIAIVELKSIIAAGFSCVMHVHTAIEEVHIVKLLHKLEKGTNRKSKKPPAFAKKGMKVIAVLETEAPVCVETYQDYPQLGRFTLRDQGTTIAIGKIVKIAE
UniProt P31539: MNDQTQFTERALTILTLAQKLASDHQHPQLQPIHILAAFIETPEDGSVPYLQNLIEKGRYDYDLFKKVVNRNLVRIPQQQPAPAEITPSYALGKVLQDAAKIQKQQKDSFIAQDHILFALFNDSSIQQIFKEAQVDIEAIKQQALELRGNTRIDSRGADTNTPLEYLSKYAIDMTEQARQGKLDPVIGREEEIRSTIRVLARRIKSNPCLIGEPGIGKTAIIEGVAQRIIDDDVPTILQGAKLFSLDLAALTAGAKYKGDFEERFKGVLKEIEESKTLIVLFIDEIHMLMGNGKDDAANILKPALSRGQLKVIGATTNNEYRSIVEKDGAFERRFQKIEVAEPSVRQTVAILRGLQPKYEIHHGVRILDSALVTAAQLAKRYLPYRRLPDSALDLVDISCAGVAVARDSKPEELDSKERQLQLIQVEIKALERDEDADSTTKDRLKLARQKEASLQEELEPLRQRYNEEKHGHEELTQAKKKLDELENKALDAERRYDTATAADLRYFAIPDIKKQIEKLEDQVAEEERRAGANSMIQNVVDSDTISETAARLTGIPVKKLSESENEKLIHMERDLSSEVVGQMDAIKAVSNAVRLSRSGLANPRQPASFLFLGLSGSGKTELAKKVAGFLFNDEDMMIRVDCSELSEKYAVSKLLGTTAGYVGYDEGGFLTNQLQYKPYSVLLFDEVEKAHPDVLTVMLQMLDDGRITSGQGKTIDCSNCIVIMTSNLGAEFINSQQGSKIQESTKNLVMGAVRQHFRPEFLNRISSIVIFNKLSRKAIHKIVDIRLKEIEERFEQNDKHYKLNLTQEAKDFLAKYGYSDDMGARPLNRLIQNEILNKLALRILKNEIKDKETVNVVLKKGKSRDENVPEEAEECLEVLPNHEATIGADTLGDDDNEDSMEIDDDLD

Target: MRF (HA-tagged Sup35p without the 123 N-terminal amino acids which constitute the prion, N, domain) (S. cerevisiae) (UniProt P05453)
Test: co-IP; 800 μg of lysate proteins with anti-HA antibodies on agarose beads, 1.5 hrs at 4°C, washed with PBS with 0.05% Tween 20; blots with anti-RF and anti-Hsp104

## Hsp104 (from UniProt P31539 1-908)
  binding: no binding
